Measurements reported in publication doi:10.1101/2024.01.05.574393.
No constants are given. Whether binding was seen depends on the method and setting. For some assays here: Binding seen in cells or lysates may run through a third protein. Some entries that bind do so weakly or less than the wild type.

Protein sequences, listed by entry. Tags and fused reporters are not part of them.
UniProt Q8VHX6: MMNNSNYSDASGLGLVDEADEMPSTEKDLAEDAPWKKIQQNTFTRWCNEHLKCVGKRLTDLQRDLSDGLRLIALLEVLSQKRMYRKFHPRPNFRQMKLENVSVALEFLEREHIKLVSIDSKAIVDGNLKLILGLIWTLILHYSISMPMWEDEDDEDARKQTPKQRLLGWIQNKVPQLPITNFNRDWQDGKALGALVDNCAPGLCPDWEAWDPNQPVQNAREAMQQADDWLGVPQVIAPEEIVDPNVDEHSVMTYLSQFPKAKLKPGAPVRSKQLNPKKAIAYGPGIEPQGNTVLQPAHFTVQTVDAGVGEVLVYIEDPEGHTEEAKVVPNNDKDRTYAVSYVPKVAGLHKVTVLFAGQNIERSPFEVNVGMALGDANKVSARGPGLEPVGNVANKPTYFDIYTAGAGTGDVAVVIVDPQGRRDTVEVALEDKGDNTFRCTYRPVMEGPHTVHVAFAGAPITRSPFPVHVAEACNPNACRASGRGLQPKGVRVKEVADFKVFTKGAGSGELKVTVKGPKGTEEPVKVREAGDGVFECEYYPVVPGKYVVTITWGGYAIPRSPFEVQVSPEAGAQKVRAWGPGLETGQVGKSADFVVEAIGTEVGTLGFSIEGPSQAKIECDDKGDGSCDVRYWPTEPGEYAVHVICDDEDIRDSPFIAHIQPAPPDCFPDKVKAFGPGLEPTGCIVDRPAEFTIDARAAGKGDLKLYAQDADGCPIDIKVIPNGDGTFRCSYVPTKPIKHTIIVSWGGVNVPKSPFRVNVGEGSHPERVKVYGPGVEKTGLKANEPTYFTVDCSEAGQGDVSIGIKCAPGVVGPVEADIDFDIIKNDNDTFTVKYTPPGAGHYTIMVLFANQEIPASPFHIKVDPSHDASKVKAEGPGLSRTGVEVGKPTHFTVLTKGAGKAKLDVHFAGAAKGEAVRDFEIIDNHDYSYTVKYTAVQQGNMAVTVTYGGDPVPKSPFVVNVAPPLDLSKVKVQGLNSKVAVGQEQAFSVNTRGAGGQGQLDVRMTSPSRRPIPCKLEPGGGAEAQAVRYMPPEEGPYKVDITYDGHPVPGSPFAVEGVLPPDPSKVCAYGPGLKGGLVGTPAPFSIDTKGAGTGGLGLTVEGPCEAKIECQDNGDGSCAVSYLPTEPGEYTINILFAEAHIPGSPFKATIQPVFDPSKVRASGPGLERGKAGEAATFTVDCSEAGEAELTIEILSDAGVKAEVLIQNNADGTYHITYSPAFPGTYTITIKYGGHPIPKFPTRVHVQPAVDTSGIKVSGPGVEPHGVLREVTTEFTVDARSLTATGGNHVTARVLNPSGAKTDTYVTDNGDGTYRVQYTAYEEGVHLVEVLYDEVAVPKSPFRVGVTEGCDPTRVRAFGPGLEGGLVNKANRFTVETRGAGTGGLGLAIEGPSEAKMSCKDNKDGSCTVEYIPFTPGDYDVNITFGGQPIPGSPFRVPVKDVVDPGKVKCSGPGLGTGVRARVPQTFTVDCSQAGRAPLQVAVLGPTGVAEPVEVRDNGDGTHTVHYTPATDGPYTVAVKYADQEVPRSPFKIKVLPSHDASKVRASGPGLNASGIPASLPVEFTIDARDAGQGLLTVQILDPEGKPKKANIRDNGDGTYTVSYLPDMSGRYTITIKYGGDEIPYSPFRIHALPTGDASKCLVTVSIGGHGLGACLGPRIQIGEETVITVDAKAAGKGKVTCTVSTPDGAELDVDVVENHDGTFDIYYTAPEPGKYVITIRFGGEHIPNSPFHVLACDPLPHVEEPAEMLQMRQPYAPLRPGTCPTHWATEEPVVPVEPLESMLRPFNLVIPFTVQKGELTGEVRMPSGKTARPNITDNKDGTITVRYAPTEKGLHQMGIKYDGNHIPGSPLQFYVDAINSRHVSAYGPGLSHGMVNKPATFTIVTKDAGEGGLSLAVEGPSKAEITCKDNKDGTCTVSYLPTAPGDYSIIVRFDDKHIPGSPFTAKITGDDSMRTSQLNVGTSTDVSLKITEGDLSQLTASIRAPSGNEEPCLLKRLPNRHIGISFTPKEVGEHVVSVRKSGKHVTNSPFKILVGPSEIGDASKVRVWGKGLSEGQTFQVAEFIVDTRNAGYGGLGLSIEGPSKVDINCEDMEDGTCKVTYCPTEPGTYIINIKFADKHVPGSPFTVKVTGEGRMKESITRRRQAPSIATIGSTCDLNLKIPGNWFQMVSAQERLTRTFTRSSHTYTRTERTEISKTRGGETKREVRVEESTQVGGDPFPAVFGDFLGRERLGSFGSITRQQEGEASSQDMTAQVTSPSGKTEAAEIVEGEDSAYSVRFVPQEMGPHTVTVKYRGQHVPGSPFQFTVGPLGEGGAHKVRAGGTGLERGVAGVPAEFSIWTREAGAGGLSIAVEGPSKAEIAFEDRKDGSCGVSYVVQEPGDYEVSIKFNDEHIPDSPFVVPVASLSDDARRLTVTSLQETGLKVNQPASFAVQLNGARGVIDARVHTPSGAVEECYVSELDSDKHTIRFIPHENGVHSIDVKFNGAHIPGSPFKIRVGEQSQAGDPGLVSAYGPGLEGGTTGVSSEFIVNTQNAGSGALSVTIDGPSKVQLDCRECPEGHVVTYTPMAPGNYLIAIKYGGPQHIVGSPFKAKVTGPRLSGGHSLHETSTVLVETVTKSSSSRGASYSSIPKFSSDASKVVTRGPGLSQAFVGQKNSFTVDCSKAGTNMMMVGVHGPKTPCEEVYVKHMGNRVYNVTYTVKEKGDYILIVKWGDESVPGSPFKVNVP
UniProt P35385: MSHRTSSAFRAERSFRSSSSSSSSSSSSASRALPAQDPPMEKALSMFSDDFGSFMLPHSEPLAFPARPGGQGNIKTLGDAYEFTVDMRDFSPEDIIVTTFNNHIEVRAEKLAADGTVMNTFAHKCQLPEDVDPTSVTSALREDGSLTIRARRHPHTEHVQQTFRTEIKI

Tests used:
[1] = target: filamin C (FLNC), endogenous in mouse ventricular tissue (mouse (endogenous in ventricular tissue)) (UniProt Q8VHX6); assay: co-IP
[2] = target: HSPB7ΔN (residues 78-175 of isoform 2) (human) (UniProt Q9UBY9); assay: native MS

Substance | binding [1] | binding [2]
HSPB7, endogenous in mouse ventricular tissue (from UniProt P35385 1-169) | binds | –
HSPB7ΔN (residues 78-175 of isoform 2) (from UniProt Q9UBY9-2 78-175) (domain or fragment) | – | no binding (tested: ~10 μM)
